# Measured data: PubChem BioAssay AID504784 (Drosophila RNAi Screening Center, 2011)
# Test: 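Search for regulators of lipid droplet storage in oleate-fed fly cells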 (primary screen)
# Cells: Drosophila Kc167 embryonic cells
# Reagent: long dsRNA against Drosophila genes, about 250 ng dsRNA per well
# Duration: 4 days
# Treatment: cells fed 400 µM oleic acid bound to BSA
# Measured: 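Microscope images give a droplet-to-nucleus area ratio, taken as log and converted to a screen-wide B-score; higher values mean greater lipid storage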
# Reading the numbers: droplet/nuclear area B-score: higher = more stored lipid (overstorage)
# The screen tested about 17,000 reagents; shown is a random part of those with a known target gene and a result. 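Each column is one replicate's B-score; the combined score over replicates was not deposited, so single values may mislead.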 The numbers tell different reagents against one gene apart. Not all columns of the deposit are shown. Reagent sequences are not shown.
Gene,dsRNA no.,"droplet/nuclear area B-score, replicate 1"
Prosalpha3T,1,-0.214
CG15422,1,-0.187
CG5282,1,0.0419
CG32718,1,1.12
CG14072,1,2.6
RpL32,1,8.75
CG32945,1,-0.3
CG14966,1,-2.23
CG7084,1,0.776
CG13068,1,-0.552
Hydr1,1,-0.0571
CG32793,1,-0.0182
CG32793,2,1.28
Sclp,1,-2.82
CG32055,1,-0.607
Glt,1,-0.607
Brd7-9,1,2.35
sw,1,4.28
CG11095,1,1.08
Mob3,1,-3.54
CG33258,1,0.544
Mics1,1,1.03
CG18675,1,-0.318
CG18473,1,1.23
Scsalpha2,1,-0.0244
Pcp,1,-0.0553
CG4962,1,0.418
Sp212,1,-0.863
CG13215,1,-0.0171
CG2017,1,0.359
CG17999,1,1.75
CG13337,1,-0.877
E2f1,1,1.71
CG31226,1,-0.641

11 entries from above in another layout.
CG32718: droplet/nuclear area B-score, replicate 1 = 1.12
CG14072: droplet/nuclear area B-score, replicate 1 = 2.6
RpL32: droplet/nuclear area B-score, replicate 1 = 8.75
CG32945: droplet/nuclear area B-score, replicate 1 = -0.3
CG14966: droplet/nuclear area B-score, replicate 1 = -2.23
CG7084: droplet/nuclear area B-score, replicate 1 = 0.776
CG13068: droplet/nuclear area B-score, replicate 1 = -0.552
Hydr1: droplet/nuclear area B-score, replicate 1 = -0.0571
CG32793 #1: droplet/nuclear area B-score, replicate 1 = -0.0182
CG32793 #2: droplet/nuclear area B-score, replicate 1 = 1.28
Sclp: droplet/nuclear area B-score, replicate 1 = -2.82

Additional entries:
Gene,dsRNA no.,"droplet/nuclear area B-score, replicate 1"
CG7328,1,-0.112
Acadvl,1,-0.0144
CG31559,1,1.78
CG31559,2,-0.512
Smurf,1,-0.983
Cpr47Ea,1,-3.72
CG4239,1,-0.472
ND-24L,1,-1.2
CG11068,1,1.81
Or63a,1,1.6
Tpr2,1,3.34
fd3F (retired record),1,-1.57
fd3F (retired record),2,1.59
CG9855,1,0.0516
Pvf1,1,-0.0438
RluA-2,1,-0.823
CG42390,1,0.132
CG42390,2,-0.622
CG42390,3,-0.293
RfC3,1,-0.209
Adgf-D,1,-0.814
CG8925,1,0.273
CG8925,2,1.8
CG8925,3,0.936
Alp9,1,-1.64
CG33303,1,1.47
CG14657,1,-1.23
CG14657,2,-2.76
X11L,1,0.06
X11L,2,-3.77
CG13088,1,2.88
CG9702,1,1.25
CG3803,1,1.72
S-Lap8,1,-1.12
S-Lap8,2,0.561
DIP-zeta,1,-0.0937
DIP-zeta,2,-0.0337
DIP-zeta,3,1.05
ninaE,1,-0.0563
CG5359,1,0.197
NC2alpha,1,0.744
Gr97a,1,-0.556
CG13002,1,-0.25
CG18233,1,-0.901
brat,1,0.164
CG1894,1,-0.0828
etaTry,1,-0.926
Def,1,1.69
grk,1,-0.19
